The results in this text go back to publication PMC5762923.

Amino acid sequences for entries named in this document (tags omitted).
UniProt Q13263: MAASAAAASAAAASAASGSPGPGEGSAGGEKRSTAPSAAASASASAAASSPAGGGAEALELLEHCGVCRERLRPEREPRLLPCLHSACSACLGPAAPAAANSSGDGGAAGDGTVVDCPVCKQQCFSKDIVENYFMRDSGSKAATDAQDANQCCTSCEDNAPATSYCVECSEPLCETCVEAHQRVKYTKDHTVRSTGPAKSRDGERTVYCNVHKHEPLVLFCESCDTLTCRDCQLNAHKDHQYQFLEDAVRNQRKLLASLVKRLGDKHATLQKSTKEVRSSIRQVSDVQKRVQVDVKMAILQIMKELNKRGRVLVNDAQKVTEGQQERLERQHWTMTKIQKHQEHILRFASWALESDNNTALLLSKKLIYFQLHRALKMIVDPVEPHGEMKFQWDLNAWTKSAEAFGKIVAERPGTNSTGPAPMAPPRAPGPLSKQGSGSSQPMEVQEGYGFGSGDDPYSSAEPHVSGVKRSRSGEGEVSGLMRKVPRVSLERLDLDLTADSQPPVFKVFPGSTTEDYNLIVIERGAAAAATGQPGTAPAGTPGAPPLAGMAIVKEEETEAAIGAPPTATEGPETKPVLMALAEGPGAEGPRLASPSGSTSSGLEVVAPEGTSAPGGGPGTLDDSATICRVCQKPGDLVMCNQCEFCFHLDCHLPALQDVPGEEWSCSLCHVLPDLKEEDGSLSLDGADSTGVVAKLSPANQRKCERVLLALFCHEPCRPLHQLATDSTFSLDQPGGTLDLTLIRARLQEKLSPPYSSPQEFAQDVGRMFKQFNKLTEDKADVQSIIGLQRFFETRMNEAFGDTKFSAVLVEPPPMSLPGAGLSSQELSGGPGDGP

Positions count from the first letter of the chain named. In names and notes the source's numbering stands. Results are given in words; binding and its absence hold for the method and conditions named. Binding seen in cells or lysates may run through a third protein. Some results given as binding are weak or reduced against the parent protein; the word gives no strength. Sequences can lack the tags named with a protein.

The assay addresses Myc-tagged TRIM28 (tripartite motif-containing 28) (UniProt Q13263). As to the kind of experiment: co-IP; HEK293 cells transfected with Myc-TRIM28 and 3XFlag-SENP6 or 3XFlag-SENP6(C1030A), 48 h; lysed in RIPA buffer with protease inhibitor and NEM; immunoprecipitation with Myc or Flag antibodies; western blot. (In general: A western blot detects proteins with antibodies after separation by electrophoresis.)

B1: 3XFlag-SENP6 (SUMO1/sentrin-specific peptidase 6), wild type (enzyme, UniProt Q9GZR1 1-1112)
chain: MAAGKSGGSAGEITFLEALARSESKRDGGFKNNWSFDHEEESEGDTDKDGTNLLSVDEDEDSETSKGKKLNRRSEIVANSSGEFILKTYVRRNKSESFKTLKGNPIGLNMLSNNKKLSENTQNTSLCSGTVVHGRRFHHAHAQIPVVKTAAQSSLDRKERKEYPPHVQKVEINPVRLSRLQGVERIMKKTEESESQVEPEIKRKVQQKRHCSTYQPTPPLSPASKKCLTHLEDLQRNCRQAITLNESTGPLLRTSIHQNSGGQKSQNTGLTTKKFYGNNVEKVPIDIIVNCDDSKHTYLQTNGKVILPGAKIPKITNLKERKTSLSDLNDPIILSSDDDDDNDRTNRRESISPQPADSACSSPAPSTGKVEAALNENTCRAERELRSIPEDSELNTVTLPRKARMKDQFGNSIINTPLKRRKVFSQEPPDALALSCQSSFDSVILNCRSIRVGTLFRLLIEPVIFCLDFIKIQLDEPDHDPVEIILNTSDLTKCEWCNVRKLPVVFLQAIPAVYQKLSIQLQMNKEDKVWNDCKGVNKLTNLEEQYIILIFQNGLDPPANMVFESIINEIGIKNNISNFFAKIPFEEANGRLVACTRTYEESIKGSCGQKENKIKTVSFESKIQLRSKQEFQFFDEEEETGENHTIFIGPVEKLIVYPPPPAKGGISVTNEDLHCLNEGEFLNDVIIDFYLKYLVLEKLKKEDADRIHIFSSFFYKRLNQRERRNHETTNLSIQQKRHGRVKTWTRHVDIFEKDFIFVPLNEAAHWFLAVVCFPGLEKPKYEPNPHYHENAVIQKCSTVEDSCISSSASEMESCSQNSSAKPVIKKMLNKKHCIAVIDSNPGQEESDPRYKRNICSVKYSVKKINHTASENEEFNKGESTSQKVADRTKSENGLQNESLSSTHHTDGLSKIRLNYSDESPEAGKMLEDELVDFSEDQDNQDDSSDDGFLADDNCSSEIGQWHLKPTICKQPCILLMDSLRGPSRSNVVKILREYLEVEWEVKKGSKRSFSKDVMKGSNPKVPQQNNFSDCGVYVLQYVESFFENPILSFELPMNLANWFPPPRMRTKREEIRNIILKLQEDQSKEKRKHKDTYSTEAPLGEGTEQYVNSISD
Turning to B1, the binding result was “binds”.

B2: 3XFlag-SENP6(C1030A) (enzyme, UniProt Q9GZR1 1-1112)
chain: B1 chain with C1030A
Take B2: the binding entry is “binds”.
